Publication PMC7210307
No constants are given. Whether binding was seen depends on the method and setting. Binding seen in cells or lysates may run through a third protein. Some results given as binding are weak or reduced against the parent protein; the word gives no strength. Blank lines part the entries; values can stand above or below the substance they belong to.

Chains of the proteins cited; added tags and fusions are not shown.
UniProt P61586: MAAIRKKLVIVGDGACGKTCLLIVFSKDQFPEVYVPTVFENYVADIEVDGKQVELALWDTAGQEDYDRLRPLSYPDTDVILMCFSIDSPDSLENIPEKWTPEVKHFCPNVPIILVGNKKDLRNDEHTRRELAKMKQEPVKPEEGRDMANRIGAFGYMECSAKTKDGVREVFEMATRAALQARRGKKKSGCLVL
UniProt Q9P212: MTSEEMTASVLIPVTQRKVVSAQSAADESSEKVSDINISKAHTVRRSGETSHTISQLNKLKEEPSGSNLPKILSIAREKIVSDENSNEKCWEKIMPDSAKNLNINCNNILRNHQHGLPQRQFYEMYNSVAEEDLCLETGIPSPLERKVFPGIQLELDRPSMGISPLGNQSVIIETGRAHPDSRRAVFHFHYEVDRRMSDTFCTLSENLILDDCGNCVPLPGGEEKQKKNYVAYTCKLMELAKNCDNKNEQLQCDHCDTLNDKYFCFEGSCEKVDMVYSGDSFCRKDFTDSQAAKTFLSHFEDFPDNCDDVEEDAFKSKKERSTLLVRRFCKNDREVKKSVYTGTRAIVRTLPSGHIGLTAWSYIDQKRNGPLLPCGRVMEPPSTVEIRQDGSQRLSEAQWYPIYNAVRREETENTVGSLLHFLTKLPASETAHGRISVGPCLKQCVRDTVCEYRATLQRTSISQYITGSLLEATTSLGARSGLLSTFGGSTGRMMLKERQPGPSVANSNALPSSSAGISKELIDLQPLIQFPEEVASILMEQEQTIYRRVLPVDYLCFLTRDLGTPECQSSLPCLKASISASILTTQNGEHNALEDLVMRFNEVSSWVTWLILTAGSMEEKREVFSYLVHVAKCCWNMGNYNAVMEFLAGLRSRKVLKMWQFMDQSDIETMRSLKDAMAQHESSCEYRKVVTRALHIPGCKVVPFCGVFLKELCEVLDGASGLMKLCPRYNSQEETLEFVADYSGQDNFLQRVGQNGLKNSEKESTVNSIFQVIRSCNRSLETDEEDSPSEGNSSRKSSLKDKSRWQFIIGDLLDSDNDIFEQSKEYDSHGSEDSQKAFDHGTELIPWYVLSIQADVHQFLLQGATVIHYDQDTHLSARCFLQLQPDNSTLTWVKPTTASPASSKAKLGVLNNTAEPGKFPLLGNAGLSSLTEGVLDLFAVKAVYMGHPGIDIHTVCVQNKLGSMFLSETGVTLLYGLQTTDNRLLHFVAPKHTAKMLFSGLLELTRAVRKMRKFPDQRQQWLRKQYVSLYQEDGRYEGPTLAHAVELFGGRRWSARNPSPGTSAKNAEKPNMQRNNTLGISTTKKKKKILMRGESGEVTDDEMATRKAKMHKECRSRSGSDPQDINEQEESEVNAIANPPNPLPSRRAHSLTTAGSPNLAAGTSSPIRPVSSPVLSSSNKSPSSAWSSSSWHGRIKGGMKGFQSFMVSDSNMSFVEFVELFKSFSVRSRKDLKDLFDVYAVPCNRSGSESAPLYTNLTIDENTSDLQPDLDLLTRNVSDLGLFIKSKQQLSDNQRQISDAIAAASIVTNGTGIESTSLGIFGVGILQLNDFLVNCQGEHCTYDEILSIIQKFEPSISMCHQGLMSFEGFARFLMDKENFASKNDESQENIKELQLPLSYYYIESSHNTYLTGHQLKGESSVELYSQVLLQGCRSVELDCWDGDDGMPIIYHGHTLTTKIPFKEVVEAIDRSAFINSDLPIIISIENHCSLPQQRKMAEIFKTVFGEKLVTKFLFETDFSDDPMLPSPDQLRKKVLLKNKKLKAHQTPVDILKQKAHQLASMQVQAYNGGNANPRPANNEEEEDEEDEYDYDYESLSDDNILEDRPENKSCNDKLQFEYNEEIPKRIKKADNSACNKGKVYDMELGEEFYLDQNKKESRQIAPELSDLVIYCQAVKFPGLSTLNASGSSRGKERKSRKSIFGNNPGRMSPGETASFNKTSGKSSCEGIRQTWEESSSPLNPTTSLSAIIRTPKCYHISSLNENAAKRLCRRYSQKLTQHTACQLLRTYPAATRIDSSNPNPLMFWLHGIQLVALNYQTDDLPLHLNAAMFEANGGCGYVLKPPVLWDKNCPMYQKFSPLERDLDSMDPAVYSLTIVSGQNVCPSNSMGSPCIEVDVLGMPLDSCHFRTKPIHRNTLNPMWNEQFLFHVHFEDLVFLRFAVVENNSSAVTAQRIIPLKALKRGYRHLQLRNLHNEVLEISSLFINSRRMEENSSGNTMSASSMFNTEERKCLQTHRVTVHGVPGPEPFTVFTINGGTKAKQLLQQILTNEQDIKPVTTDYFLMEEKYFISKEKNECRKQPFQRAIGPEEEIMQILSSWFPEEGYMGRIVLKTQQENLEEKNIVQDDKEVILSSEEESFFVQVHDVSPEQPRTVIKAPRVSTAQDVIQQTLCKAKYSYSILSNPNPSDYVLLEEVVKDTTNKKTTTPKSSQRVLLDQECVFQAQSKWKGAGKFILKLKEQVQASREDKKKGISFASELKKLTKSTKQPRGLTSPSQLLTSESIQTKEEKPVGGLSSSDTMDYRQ
UniProt P60953: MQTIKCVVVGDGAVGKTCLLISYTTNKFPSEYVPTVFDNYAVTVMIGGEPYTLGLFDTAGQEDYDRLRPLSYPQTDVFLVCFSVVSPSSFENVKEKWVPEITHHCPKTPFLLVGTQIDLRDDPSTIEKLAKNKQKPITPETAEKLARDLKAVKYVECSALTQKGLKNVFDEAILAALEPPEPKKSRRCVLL
UniProt O43639: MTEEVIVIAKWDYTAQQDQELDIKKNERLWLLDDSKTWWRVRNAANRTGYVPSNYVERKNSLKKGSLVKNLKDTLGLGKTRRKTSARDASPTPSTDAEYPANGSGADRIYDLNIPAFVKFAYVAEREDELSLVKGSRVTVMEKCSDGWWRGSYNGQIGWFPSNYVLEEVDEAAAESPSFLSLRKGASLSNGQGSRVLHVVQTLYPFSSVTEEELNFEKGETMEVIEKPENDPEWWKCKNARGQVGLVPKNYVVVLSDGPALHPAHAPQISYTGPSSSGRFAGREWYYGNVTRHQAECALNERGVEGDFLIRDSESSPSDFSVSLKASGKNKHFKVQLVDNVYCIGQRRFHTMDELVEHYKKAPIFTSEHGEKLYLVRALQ

Assays:
GST-RhoA = GST-RhoA (UniProt P61586); assay: pull-down; GST-Rac1 or GST-RhoA purified from E. coli as bait; FLAG-PLCE1 expressed in HEK293 cells; only the target purified
[1] = biological target: FLAG-tagged PLCE1 transfected into podocytes (human) (UniProt Q9P212); assay: co-IP; FLAG-tagged PLCE1 and Myc-tagged NCKs transfected into podocytes; lysates immunoprecipitated with anti-FLAG agarose beads
[2] = biological target: Cdc42 in cultured podocytes (UniProt P60953); assay: co-IP; coimmunoprecipitation in cultured podocytes in the background of PLCE1 overexpression; which partner was precipitated is not stated
[3] = biological target: RhoA in cultured podocytes (UniProt P61586); assay: as above

binding (GST-RhoA): binds
Substance: FLAG-PLCE1 expressed in HEK293 cells (from UniProt Q9P212 1-2302) (enzyme)

binding [1]: binds
Substance: Myc-tagged NCK2 (from UniProt O43639 1-380)

binding [2]: no binding | binding [3]: binds
Substance: PLCE1 (phospholipase C epsilon 1), overexpressed in cultured podocytes (from UniProt Q9P212 1-2302) (enzyme)
